Measured values: the supplement of paper PMC12819154, “High-throughput peptide-centric local stability assay extends protein–ligand identification to membrane proteins, tissues and bacteria” (Nature Structural & Molecular Biology, 2025)
The list shows a part of the results. Most entries show no effect beyond the scatter of the controls.

Protein sequences, listed by entry. Tags and fused reporters are not part of them. Lines headed by an entry give the natural chain unless they say otherwise; changes in a name come on top.
UniProt Q9R1W5: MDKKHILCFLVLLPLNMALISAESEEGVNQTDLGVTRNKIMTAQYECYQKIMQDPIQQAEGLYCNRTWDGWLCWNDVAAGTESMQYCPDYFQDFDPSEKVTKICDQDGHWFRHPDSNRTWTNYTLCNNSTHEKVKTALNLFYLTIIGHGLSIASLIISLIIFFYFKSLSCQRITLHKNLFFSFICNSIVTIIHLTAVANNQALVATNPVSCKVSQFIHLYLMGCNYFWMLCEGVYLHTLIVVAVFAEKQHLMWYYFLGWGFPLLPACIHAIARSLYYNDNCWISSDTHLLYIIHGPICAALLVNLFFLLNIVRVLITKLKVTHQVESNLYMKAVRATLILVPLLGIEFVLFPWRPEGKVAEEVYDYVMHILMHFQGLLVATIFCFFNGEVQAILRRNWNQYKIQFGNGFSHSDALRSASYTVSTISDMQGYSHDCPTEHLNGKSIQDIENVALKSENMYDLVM
UniProt Q9R1C0, whole entry: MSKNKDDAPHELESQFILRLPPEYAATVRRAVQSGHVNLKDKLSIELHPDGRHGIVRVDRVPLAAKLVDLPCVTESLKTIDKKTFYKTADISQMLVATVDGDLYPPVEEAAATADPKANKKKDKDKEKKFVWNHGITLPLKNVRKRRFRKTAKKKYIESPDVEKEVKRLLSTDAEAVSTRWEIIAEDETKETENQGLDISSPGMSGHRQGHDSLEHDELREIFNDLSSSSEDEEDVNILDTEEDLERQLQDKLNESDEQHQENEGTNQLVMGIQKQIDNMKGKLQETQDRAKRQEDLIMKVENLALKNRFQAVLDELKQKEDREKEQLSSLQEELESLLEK
UniProt Q9QYB8: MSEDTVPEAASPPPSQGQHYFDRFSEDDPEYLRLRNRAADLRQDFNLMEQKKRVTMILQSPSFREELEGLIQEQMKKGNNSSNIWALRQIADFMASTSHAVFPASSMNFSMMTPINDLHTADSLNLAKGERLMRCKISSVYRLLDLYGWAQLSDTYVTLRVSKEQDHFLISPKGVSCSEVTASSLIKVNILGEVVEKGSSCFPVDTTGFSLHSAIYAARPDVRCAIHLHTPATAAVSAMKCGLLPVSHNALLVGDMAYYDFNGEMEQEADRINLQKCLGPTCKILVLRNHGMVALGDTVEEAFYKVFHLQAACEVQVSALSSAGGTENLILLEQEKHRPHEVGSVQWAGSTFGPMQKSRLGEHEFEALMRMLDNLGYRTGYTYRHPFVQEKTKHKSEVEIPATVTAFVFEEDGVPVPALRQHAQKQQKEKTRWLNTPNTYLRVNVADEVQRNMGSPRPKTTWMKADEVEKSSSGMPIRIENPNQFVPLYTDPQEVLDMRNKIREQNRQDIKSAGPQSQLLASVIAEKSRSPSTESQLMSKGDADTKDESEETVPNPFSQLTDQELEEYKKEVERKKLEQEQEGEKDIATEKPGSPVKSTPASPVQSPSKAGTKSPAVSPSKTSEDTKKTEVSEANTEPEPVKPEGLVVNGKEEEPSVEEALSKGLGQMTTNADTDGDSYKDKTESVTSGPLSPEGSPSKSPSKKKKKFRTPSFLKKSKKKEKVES
UniProt Q9QYY0: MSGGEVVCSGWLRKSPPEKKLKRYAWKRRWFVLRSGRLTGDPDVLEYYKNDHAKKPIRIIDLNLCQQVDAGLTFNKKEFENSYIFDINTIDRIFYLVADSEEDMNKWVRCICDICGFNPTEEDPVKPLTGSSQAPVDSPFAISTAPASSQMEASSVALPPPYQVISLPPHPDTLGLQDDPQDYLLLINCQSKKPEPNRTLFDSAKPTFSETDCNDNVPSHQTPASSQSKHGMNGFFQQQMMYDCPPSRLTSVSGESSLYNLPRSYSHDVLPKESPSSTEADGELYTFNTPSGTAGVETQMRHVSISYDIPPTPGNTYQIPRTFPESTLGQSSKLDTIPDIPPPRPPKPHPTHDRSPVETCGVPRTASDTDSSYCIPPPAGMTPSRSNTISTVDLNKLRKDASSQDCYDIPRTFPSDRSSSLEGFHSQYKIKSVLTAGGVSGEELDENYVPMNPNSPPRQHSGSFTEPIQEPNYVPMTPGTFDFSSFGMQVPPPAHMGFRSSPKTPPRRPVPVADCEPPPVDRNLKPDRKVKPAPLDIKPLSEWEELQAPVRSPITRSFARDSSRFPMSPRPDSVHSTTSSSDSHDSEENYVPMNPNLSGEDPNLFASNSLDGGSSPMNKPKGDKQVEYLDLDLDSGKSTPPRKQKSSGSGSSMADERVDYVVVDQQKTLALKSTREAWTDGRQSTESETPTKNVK
UniProt Q9QXF8: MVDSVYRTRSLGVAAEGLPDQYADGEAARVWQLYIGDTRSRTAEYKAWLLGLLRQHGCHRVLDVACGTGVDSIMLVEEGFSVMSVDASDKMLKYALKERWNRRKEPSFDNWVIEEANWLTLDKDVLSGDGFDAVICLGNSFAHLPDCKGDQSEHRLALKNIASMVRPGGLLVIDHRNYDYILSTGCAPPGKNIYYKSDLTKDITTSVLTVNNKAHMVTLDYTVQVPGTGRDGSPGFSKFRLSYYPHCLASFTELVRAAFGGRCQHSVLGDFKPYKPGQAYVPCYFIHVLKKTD
UniProt Q9WUR9: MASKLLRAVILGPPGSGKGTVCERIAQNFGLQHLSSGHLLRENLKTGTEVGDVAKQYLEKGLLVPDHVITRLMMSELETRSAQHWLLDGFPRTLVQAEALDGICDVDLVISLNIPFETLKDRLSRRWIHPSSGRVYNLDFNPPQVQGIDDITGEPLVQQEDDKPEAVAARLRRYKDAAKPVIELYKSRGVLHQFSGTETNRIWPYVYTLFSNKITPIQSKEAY
UniProt Q9R0C0: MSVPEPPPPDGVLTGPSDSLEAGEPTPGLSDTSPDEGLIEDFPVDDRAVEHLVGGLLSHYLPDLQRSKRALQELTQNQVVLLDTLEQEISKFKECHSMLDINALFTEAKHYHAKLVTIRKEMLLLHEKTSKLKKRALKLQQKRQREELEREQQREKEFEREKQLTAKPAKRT
UniProt Q9R1V6: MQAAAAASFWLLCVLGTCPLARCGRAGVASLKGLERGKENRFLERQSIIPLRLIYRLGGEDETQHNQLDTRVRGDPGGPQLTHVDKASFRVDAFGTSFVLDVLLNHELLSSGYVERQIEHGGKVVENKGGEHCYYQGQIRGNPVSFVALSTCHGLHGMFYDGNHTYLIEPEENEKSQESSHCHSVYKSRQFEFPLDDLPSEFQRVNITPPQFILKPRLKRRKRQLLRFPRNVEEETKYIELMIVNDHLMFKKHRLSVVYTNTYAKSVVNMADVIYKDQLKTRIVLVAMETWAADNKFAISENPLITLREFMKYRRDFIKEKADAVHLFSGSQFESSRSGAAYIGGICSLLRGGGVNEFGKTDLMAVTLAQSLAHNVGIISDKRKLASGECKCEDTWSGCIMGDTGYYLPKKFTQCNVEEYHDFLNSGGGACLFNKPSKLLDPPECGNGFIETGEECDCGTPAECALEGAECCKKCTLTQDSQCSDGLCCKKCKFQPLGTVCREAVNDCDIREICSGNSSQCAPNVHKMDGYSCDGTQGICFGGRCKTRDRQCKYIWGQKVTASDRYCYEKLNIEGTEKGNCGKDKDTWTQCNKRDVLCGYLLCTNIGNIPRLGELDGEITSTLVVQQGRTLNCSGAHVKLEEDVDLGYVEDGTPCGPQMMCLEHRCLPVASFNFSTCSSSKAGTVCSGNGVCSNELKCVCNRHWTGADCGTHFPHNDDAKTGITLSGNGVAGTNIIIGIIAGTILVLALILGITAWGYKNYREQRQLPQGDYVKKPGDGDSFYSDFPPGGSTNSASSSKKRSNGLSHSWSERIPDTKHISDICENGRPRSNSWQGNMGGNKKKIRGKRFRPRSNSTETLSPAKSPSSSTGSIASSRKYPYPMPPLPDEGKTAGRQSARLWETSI
UniProt Q9WU28, whole entry: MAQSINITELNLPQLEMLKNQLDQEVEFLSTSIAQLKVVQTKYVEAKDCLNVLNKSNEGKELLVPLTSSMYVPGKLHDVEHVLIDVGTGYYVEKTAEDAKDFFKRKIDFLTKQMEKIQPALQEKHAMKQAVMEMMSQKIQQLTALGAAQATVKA
UniProt Q9WUV0: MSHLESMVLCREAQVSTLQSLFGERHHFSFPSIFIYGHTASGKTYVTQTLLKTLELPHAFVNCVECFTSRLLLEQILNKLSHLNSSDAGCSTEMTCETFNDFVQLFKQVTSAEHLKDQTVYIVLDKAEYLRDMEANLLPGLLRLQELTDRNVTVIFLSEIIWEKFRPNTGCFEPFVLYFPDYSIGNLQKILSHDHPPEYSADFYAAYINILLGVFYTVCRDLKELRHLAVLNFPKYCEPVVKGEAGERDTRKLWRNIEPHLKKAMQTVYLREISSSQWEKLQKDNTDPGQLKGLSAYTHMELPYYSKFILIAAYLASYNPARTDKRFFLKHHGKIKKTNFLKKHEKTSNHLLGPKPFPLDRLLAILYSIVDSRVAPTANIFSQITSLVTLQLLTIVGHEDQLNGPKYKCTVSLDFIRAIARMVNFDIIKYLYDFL
UniProt Q9WUU7: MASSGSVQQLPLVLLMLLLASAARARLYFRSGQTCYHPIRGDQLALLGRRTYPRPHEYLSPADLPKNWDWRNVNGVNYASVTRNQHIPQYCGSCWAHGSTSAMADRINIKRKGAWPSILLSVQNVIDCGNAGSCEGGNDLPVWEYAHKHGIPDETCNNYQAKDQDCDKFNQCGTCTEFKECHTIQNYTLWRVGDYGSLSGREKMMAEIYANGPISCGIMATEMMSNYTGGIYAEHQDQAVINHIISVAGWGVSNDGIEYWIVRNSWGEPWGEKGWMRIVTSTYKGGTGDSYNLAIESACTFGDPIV
UniProt Q9QXX8: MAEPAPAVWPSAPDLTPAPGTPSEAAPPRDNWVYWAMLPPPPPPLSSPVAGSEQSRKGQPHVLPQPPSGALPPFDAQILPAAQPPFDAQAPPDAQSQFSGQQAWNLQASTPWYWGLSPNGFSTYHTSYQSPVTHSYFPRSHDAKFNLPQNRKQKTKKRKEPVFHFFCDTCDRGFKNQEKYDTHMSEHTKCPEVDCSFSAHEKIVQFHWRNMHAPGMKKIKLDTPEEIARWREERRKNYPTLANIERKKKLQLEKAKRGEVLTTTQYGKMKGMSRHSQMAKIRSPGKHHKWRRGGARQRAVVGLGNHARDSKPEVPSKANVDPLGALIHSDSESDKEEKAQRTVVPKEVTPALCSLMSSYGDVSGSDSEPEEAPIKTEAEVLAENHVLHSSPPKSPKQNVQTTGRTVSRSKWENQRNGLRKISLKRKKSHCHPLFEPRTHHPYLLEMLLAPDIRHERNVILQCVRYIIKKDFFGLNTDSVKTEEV
UniProt Q9QZ85: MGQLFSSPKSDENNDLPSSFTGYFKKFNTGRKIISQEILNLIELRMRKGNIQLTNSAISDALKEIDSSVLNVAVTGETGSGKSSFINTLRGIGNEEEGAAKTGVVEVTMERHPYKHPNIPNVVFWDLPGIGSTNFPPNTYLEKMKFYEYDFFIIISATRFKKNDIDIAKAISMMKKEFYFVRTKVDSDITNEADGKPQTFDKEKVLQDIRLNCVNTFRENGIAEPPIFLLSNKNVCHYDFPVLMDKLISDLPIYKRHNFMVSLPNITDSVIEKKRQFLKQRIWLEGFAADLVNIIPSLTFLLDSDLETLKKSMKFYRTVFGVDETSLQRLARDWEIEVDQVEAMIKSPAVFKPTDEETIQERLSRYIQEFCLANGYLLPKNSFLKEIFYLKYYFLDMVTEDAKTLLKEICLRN
UniProt Q9WUU8: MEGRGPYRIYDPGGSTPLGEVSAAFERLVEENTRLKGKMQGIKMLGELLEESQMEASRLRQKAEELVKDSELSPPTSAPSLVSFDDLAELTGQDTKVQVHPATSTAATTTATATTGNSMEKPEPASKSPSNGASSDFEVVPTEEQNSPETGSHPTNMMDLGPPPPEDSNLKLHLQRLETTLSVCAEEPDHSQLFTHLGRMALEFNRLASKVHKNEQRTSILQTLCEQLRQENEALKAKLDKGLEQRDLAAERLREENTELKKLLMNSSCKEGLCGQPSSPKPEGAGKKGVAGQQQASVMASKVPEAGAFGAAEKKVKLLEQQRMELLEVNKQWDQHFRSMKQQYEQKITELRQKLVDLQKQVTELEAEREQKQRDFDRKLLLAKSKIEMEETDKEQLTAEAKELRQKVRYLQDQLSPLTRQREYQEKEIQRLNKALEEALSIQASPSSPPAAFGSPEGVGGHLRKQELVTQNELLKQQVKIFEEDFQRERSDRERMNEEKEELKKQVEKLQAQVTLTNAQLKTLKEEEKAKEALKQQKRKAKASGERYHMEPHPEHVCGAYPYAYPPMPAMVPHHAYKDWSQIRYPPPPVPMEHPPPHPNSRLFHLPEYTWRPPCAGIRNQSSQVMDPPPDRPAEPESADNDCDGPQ
UniProt Q9QXS8: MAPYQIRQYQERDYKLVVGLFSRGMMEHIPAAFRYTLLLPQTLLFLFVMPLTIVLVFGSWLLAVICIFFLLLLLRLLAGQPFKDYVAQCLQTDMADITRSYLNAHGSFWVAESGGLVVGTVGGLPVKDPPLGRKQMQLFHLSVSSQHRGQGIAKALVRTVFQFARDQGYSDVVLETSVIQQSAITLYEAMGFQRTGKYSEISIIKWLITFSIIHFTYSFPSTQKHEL

What follows are targets tested with CN[C@@H]1C[C@H]2O[C@@](C)([C@@H]1OC)n1c3ccccc3c3c4c(c5c6ccccc6n2c5c31)C(=O)NC4 [staurosporine] (assay: log2 fold change of tryptic peptide abundance, ligand vs vehicle (limited proteolysis) (log2 ratio); higher = more trypsin-susceptible (destabilized)). Conditions: ligand concentration: 20 uM; sample: mouse liver crude lysate; replicate design: treated separately.

| Target | log2 fold change |
| --- | --- |
| UniProt Q9R1W5 (peptide sequence: IQFGNGFSHSDALR, peptide start residue: 403) | 0.236 |
| UniProt Q9WTK5 (peptide sequence: LLKGPETR, peptide start residue: 846) | -0.18 |
| UniProt Q9QYH6 (peptide sequence: IPFTFWAR, peptide start residue: 727) | -0.179 |
| UniProt Q9QXL1 (peptide sequence: LQMELMEYK, peptide start residue: 396) | -0.12 |
| UniProt Q9QZX7 (peptide sequence: LKGELTPNLHPPETIADGVK, peptide start residue: 222) | 0.202 |
| UniProt Q9QYY8 (peptide sequence: RKDPLTHASNSLPR, peptide start residue: 233) | 0.428 |
| UniProt Q9R1C0 (peptide sequence: VDRVPLAAK, peptide start residue: 58) | 0.559 |
| UniProt Q9WU60 (peptide sequence: KQQPPAQPGTCI, peptide start residue: 1417) | -0.0915 |
| UniProt Q9QYB8 (peptide sequence: QDFNLMEQK, peptide start residue: 43) | 0.234 |
| UniProt Q9QYY0 (peptide sequence: SPVETCGVPR, peptide start residue: 355) | 0.23 |
| UniProt Q9QXF8 (peptide sequence: NIASMVRPGGLLVIDHR, peptide start residue: 160) | 0.194 |
| UniProt Q9WUR9 (peptide sequence: GTVCERIAQNFGLQHLSSGHLLR, peptide start residue: 19) | 0.236 |
| UniProt Q9R0C0 (peptide sequence: AVEHLVGGLLSHYLPDLQR, peptide start residue: 48) | -0.417 |
| UniProt Q9WTP6 (peptide sequence: EPMKDDITGEPLIRR, peptide start residue: 161) | 0.551 |
| UniProt Q9R1V6 (peptide sequence: AGVASLK, peptide start residue: 26) | 0.305 |
| UniProt Q9WU28 (peptide sequence: IQPALQEK, peptide start residue: 117) | -0.171 |
| UniProt Q9WUV0 (peptide sequence: NIEPHLKK, peptide start residue: 256) | -0.779 |
| UniProt Q9WTV7 (peptide sequence: QMENSASESASARPSR, peptide start residue: 174) | 0.315 |
| UniProt Q9WUU7 (peptide sequence: NQHIPQYCGSCWAHGSTSAMADR, peptide start residue: 84) | -0.139 |
| UniProt Q9R1E0 (peptide sequence: TLPHVVNTMPHTSAMNR, peptide start residue: 535) | 0.243 |
| UniProt Q9QZQ8 (peptide sequence: NCLALADDRK, peptide start residue: 293) | -0.647 |
| UniProt Q9QXX8 (peptide sequence: SKWENQR, peptide start residue: 409) | -0.441 |
| UniProt Q9QZ85 (peptide sequence: KIISQEILNLIELR, peptide start residue: 32) | -0.579 |
| UniProt Q9WUU8 (peptide sequence: LREENTELKK, peptide start residue: 253) | -0.321 |
| UniProt Q9QYB5 (peptide sequence: SPERTEEVLSPDGSPSK, peptide start residue: 664) | -0.506 |
| UniProt Q9R1N9 (peptide sequence: EYPGGMLAALR, peptide start residue: 227) | 0.0496 |
| UniProt Q9QZS3 (peptide sequence: EKECGVTATFDASR, peptide start residue: 173) | -0.158 |
| UniProt Q9R0L6 (peptide sequence: MKTETESHSNMR, peptide start residue: 1528) | -0.551 |
| UniProt Q9QYE6 (peptide sequence: TEALEALR, peptide start residue: 317) | -0.132 |
| UniProt Q9QXS8 (peptide sequence: LVVGLFSR, peptide start residue: 16) | -0.118 |

Some of the entries above, reformatted:
Target,log2 fold change
"UniProt Q9QYE6 (peptide sequence: TEALEALR, peptide start residue: 317)",-0.132
"UniProt Q9QXS8 (peptide sequence: LVVGLFSR, peptide start residue: 16)",-0.118
